Among the data in PMC6160458 are binding values, retold here.

Sequences of proteins named here, by UniProt entry; tags and fusion partners are left off.
UniProt Q22799: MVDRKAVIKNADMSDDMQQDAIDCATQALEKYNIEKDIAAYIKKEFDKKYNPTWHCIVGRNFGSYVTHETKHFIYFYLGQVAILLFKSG
UniProt Q21215: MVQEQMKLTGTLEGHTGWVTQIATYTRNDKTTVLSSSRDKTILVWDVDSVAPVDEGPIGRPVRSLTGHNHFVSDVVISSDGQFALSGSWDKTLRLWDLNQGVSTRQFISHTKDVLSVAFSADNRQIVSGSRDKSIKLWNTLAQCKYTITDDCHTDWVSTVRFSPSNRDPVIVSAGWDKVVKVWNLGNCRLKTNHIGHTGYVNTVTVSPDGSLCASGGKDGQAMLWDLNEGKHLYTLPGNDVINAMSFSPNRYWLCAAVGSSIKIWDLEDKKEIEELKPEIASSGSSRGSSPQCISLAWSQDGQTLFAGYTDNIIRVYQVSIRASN

These are yes or no findings as the source states them, for the method shown. Binding seen in cells or lysates may run through a third protein. These calls come from enrichment with a bait or labelling near it, and not all partners need be listed. A no says only that the protein was not detected with the bait.

The target in this assay is DLC-1::GFP (dynein light chain 1 fused to GFP) (C. elegans) (UniProt Q22799). In words: affinity purification with mass spectrometry; pull-down of DLC-1::GFP repeated, bound proteins analyzed by mass spectrometry.

For the molecule “RACK-1(K04D7.1) (from UniProt Q21215 1-325)”, the binding entry was “binds”.

B1: CED-4 (Apaf1) (protein, UniProt P30429 1-549)
chain: MLCEIECRALSTAHTRLIHDFEPRDALTYLEGKNIFTEDHSELISKMSTRLERIANFLRIYRRQASELGPLIDFFNYNNQSHLADFLEDYIDFAINEPDLLRPVVIAPQFSRQMLDRKLLLGNVPKQMTCYIREYHVDRVIKKLDEMCDLDSFFLFLHGRAGSGKSVIASQALSKSDQLIGINYDSIVWLKDSGTAPKSTFDLFTDILLMLKSEDDLLNFPSVEHVTSVVLKRMICNALIDRPNTLFVFDDVVQEETIRWAQELRLRCLVTTRDVEISNAASQTCEFIEVTSLEIDECYDFLEAYGMPMPVGEKEEDVLNKTIELSSGNPATLMMFFKSCEPKTFEKMAQLNNKLESRGLVGVECITPYSYKSLAMALQRCVEVLSDEDRSALAFAVVMPPGVDIPVKLWSCVIPVDICSNEEEQLDDEVADRLKRLSKRGALLSGKRMPVLTFKIDHIIHMFLKHVVDAQTIANGISILEQRLLEIGNNNVSVPERHIPSHFQKFRRSSASEMYPKTTEETVIRPEDFPKFMQLHQKFYDSLKNFACC
On to B1, for which the binding entry is reported as “no binding”.

B2: DPF-2(C27C12.7) (protein, UniProt Q18253 1-829)
chain: MENDNYDVEEQGCSVFNGKHGYFARSCCVVFILIICVIFVFSVIFTFMQNPINLNSDNGFNQTSGNTSSLEATTLKPKFSSLMTTTRRFTFEQLFSGKQFLVDYYDYIWLPDGSFVQMNDDFTIRKQMKKIPLGSSVAEPFFNNGEYVKALSSNMKYAYGSKKVNELWRHSAEYLYHIVKINNKTVSTEQWHVGPEENSLIQAFYWNPNASSNDFVYVHNYNLYYQKDPEKPDGAIQLTVGGSTFNRFGLANWLYEEEILEASSAVWWSPSGRYVSYLRFDDREVNRIFLPKYTDDDSYVEYFELPYPKAGVQNNTLVTQYIWDSENHKIVETAPPNELSAANGDYYVLTNKWITMPRNGSDLGEERLVTVWANRDQNHVYFSLCNEQDCVMALSFQFSIDNRQLWVSPKDVRGVFPTETGFLTVLPHKHDDGNIYNHVAHVELDGTGTGKITKWIGENFDVILVLGYSSKIDALTFSAYGDGVGEFSTYIVREAMYSNKKTTLQKVTDQFEDCKTLGSQSADPTGQRIVVQCEKPFDNTRLYLVDVVDTTKKIMLEGGTKAVIPFDVPNMKFGKLKLPSGIDGHYMMLTPANLLDGAKIPLLLDIYGGPDSKQVFQKTPTAHAIQIVSQYDIAYARIDVRGTGGRGWDVKEAVYRKLGDAEVVDTLDMIRAFINTFGFIDEDRIAVMGWSYGGFLTSKIAIKDQGELVKCAISIAPVTDFKYYDSAYTERYLGQPAENLQGYINTNVIPHARNVTNVKYLLAHGERDDNVHYQNSARWSEALQQNGIHFTQLVYANEAHSLSHKLFHLYGEVQRFLMNDCFKSNLDLL
B2: the binding entry is recorded as “binds”.

B3: SAO-1(R10D12.14) (protein, UniProt C6KRN1 1-245)
chain: MHKNGNNGPVIDTKWHYLGPDSEKYGPYMSKDMLFWLQAGYFNDGLQLKTENEPNYHTLGEWSQLLGTHPFSMPVHSLDATIAQMNSMRPHGAMMMVPPGLQNQFQPPMPMRFPPFLPMPLLHQMNQNGPPMGAQMHSQPPSEPIDAGSLSHTPDSENETRLNEQTLQQPPSWLIALGLAGHGRKPHHHQQILAHQHIPQMQHANVATDQVVMKSVECQTEPVEISKEQASRVLSELLGQMVIIN
B3: the binding result is “binds”.
